The other results are listed elsewhere or left out. Single values are uncertain, as repeats are few or missing.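 Labelled rat cortical synaptosomes were engulfed by primary human fetal astrocytes. Engulfment equaled a red/green ratio, corrected for calcein live-cell signal and normalized to the plate median. Compounds were toxic when calcein dropped over 30%, and reduced phagocytosis when below 70% of the median above 5 µM.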

One assay has as its system Human fetal astrocytes. The assay is described as follows: synaptosome phagocytosis (pHrodo/calcein intensity ratio) relative to plate median of data wells; higher = more phagocytosis. As to conditions: 2.78 µM; 24 h.
As to `NC(=O)c1cccnc1`, the synaptosome phagocytosis was 81.9%.
For the molecule `C[C@H]1O[C@H](O[C@H]2[C@H](O)[C@@H](O)[C@@H](O[C@@H]([C@H](O)[C@@H](O)C=O)[C@H](O)CO)O[C@@H]2CO)[C@H](O)[C@@H](O)[C@@H]1N[C@H]1C=C(CO)[C@@H](O)[C@H](O)[C@H]1O`, the synaptosome phagocytosis is 94.3%.
On the same count and under the same terms, in the case of `CCN(CC)CCOC(=O)C(c1ccccc1)c1ccccc1` it was 89.8%.
Same read-out and setting: in the case of `N[C@@H](CSCSC[C@H](N)C(=O)O)C(=O)O` it was 99.6%; in that of `C=CC1=C(C)/C(=C/c2[nH]c(Cc3[nH]c(/C=C4\NC(=O)C(C)=C4C=C)c(C)c3CCC(=O)O)c(CCC(=O)O)c2C)NC1=O`, 141%; in that of `C[C@]12CC[C@@H]3c4ccc(O)cc4CC[C@H]3[C@@H]1CC[C@@H]2OC(=O)CCC1CCCC1`, 67.6%.
Same read-out and setting: in the case of `C[C@@H]1C(=O)O[C@H]2C[C@@]34[C@H]5C[C@@H](C(C)(C)C)[C@]36[C@@H](OC(=O)[C@@H]6O)O[C@@]4(C(=O)O5)[C@]21O` it was 142%.
As for `CN(C)CCOC(c1ccc(Cl)cc1)c1ccccn1` (stereo not given), the synaptosome phagocytosis was 109%.
Still for that read-out and setting: in the case of `COc1ccc(/C=C/C(=O)O)cc1OC` it was 86.3%; in that of `COc1ccc2c(c1)O[C@H]1c3ccc(OC)cc3OC[C@@H]21`, 63.1%.
The same measure, in the same setting: the figure for `CCCCC(CC)CN=C(N)N=C(N)NCCCCCCNC(N)=NC(N)=NCC(CC)CCCC` (stereo not given) is 101%.
Same read-out and setting: in the case of `Cc1ncc(C[n+]2csc(CCO)c2C)c(N)n1` it was 115%.
Consider `O=C(/C=C/c1ccccc1)c1ccc(O[C@@H]2O[C@H](CO)[C@@H](O)[C@H](O)[C@H]2O)cc1O`, for which the synaptosome phagocytosis was 127%.
The same measure, in the same setting: in the case of `COc1ccc(C(C)=O)c(O)c1` it was 120%; in that of `COc1c2ccoc2cc2oc(C)cc(=O)c12`, 133%.
In the case of `COCC1=C(C(=O)OC(C)OC(=O)OC(C)C)N2C(=O)[C@@H](NC(=O)/C(=N\OC)c3csc(N)n3)[C@H]2SC1` (stereo not given in full), the synaptosome phagocytosis is 85.6%.
Same read-out and setting: the figure for `C[C@]12CCC(=O)C=C1CC[C@@H]1[C@@H]2[C@@H](O)C[C@@]2(C)[C@H]1CC[C@]2(O)C(=O)COP(=O)(O)O` is 113%.
The same measure, in the same setting: in the case of `CC1(C)[C@@H](OC(=O)CCC(=O)O)CC[C@]2(C)[C@H]3C(=O)C=C4[C@@H]5C[C@@](C)(C(=O)O)CC[C@]5(C)CC[C@@]4(C)[C@]3(C)CC[C@@H]12` it was 95.5%; in that of `C/C=C/c1ccc(OC)cc1`, 94.2%; in that of `CCOc1cc(CC(=O)N[C@@H](CC(C)C)c2ccccc2N2CCCCC2)ccc1C(=O)O`, 110%.
Still for that read-out and setting: in the case of `CC(=O)c1ccc[nH]1` it was 149%; in that of `O=C(Cn1ccnc1[N+](=O)[O-])NCCO`, 104%.
In the case of `NC(=O)c1ncn([C@@H]2O[C@H](CO)[C@@H](O)[C@H]2O)c1N`, the synaptosome phagocytosis was 113%.
Still for that read-out and setting: in the case of `COc1cc(/C=C/C(=O)CC(=O)/C=C/c2ccc(O)c(OC)c2)ccc1O` it was 102%.
On the same count and under the same terms, the figure for `COc1cc(O)c(C(C)=O)c(O)c1` is 107%; for `CC(=O)O[C@@H]1CC[C@@]2(C)C(C[C@@H](OC(C)=O)[C@@]3(C)C4=CC(=O)O[C@@H](c5ccoc5)[C@]4(C)CCC23)C1(C)C` (stereo partly drawn) [3alpha-ACETOXYDIHYDRODEOXYGEDUNIN] it is 90.2%; for `CN(C)CCCOc1nn(Cc2ccccc2)c2ccccc12` it is 100%.
On the same count and under the same terms, the figure for `O=c1cc(-c2ccccc2)oc2cccc(O)c12` is 106%; for `C1CNCCN1` it is 87.8%.
With `OC[C@@H](O)[C@@H](O[C@@H]1O[C@H](CO)[C@@H](O)[C@H](O)[C@H]1O)[C@H](O)[C@@H](O)CO`, the synaptosome phagocytosis is 102%.
Same read-out and setting: the figure for `CC(CCc1ccc(O)cc1)NCCc1ccc(O)c(O)c1` (stereo not given) is 105%; for `Oc1cccc(O)c1` it is 108%.
Same read-out and setting: the figure for `COc1cc(O)c(C)c(O)c1` is 108%; for `CCOC(=O)Nc1nc2ccccc2[nH]1` it is 115%.
Same read-out and setting: the figure for `COc1cc2c(cc1OC)-c1c(oc3cc(O)cc(O)c3c1=O)CO2` is 116%.
Regarding `Nc1cc(C(Cl)=C(Cl)Cl)c(S(N)(=O)=O)cc1S(N)(=O)=O`, the synaptosome phagocytosis was 85.2%.
Still for that read-out and setting: the figure for `N[C@@H](C(=O)O)[C@@H](O)[C@H](O)[C@H](O)CO` is 101%; for `C[C@@H]1CC[C@@]2(OC1)O[C@H]1C[C@H]3[C@@H]4CC=C5C[C@@H](O)CC[C@]5(C)[C@H]4CC[C@]3(C)[C@H]1[C@@H]2C` it is 105%.
`Cc1cc(-c2ccccc2)nnc1NCCN1CCOCC1`: the synaptosome phagocytosis was 111%.
Same read-out and setting: in the case of `COc1cc(-c2cc(=O)c3c(O)c(OC)c(OC)c(OC)c3o2)cc(OC)c1OC` it was 72.5%.

The assay is the same for the next values; noted with them: 5.56 µM; 24 h.
As to `NC(=O)c1cccnc1`, the synaptosome phagocytosis was 103%.
Still for that read-out and setting: the figure for `C[C@H]1O[C@H](O[C@H]2[C@H](O)[C@@H](O)[C@@H](O[C@@H]([C@H](O)[C@@H](O)C=O)[C@H](O)CO)O[C@@H]2CO)[C@H](O)[C@@H](O)[C@@H]1N[C@H]1C=C(CO)[C@@H](O)[C@H](O)[C@H]1O` is 128%.
On the same count and under the same terms, in the case of `CCN(CC)CCOC(=O)C(c1ccccc1)c1ccccc1` it was 81%; in that of `N[C@@H](CSCSC[C@H](N)C(=O)O)C(=O)O`, 120%.
For `C=CC1=C(C)/C(=C/c2[nH]c(Cc3[nH]c(/C=C4\NC(=O)C(C)=C4C=C)c(C)c3CCC(=O)O)c(CCC(=O)O)c2C)NC1=O`, the synaptosome phagocytosis is 114%.
Still for that read-out and setting: in the case of `C[C@]12CC[C@@H]3c4ccc(O)cc4CC[C@H]3[C@@H]1CC[C@@H]2OC(=O)CCC1CCCC1` it was 79.1%; in that of `C[C@@H]1C(=O)O[C@H]2C[C@@]34[C@H]5C[C@@H](C(C)(C)C)[C@]36[C@@H](OC(=O)[C@@H]6O)O[C@@]4(C(=O)O5)[C@]21O`, 110%.
Same read-out and setting: in the case of `CN(C)CCOC(c1ccc(Cl)cc1)c1ccccn1` (stereo not given) it was 85%; in that of `COc1ccc(/C=C/C(=O)O)cc1OC`, 92.4%; in that of `COc1ccc2c(c1)O[C@H]1c3ccc(OC)cc3OC[C@@H]21`, 94.8%.
On the same count and under the same terms, the figure for `CCCCC(CC)CN=C(N)N=C(N)NCCCCCCNC(N)=NC(N)=NCC(CC)CCCC` (stereo not given) is 86.5%; for `Cc1ncc(C[n+]2csc(CCO)c2C)c(N)n1` it is 127%; for `O=C(/C=C/c1ccccc1)c1ccc(O[C@@H]2O[C@H](CO)[C@@H](O)[C@H](O)[C@H]2O)cc1O` it is 89.3%.
For the molecule `COc1ccc(C(C)=O)c(O)c1`, the synaptosome phagocytosis is 82.1%.
As for `COc1c2ccoc2cc2oc(C)cc(=O)c12`, the synaptosome phagocytosis was 127%.
The same measure, in the same setting: the figure for `COCC1=C(C(=O)OC(C)OC(=O)OC(C)C)N2C(=O)[C@@H](NC(=O)/C(=N\OC)c3csc(N)n3)[C@H]2SC1` (stereo not given in full) is 93.1%; for `C[C@]12CCC(=O)C=C1CC[C@@H]1[C@@H]2[C@@H](O)C[C@@]2(C)[C@H]1CC[C@]2(O)C(=O)COP(=O)(O)O` it is 121%; for `CC1(C)[C@@H](OC(=O)CCC(=O)O)CC[C@]2(C)[C@H]3C(=O)C=C4[C@@H]5C[C@@](C)(C(=O)O)CC[C@]5(C)CC[C@@]4(C)[C@]3(C)CC[C@@H]12` it is 107%.
Still for that read-out and setting: the figure for `C/C=C/c1ccc(OC)cc1` is 88.8%; for `CCOc1cc(CC(=O)N[C@@H](CC(C)C)c2ccccc2N2CCCCC2)ccc1C(=O)O` it is 105%; for `CC(=O)c1ccc[nH]1` it is 115%.
The same measure, in the same setting: the figure for `O=C(Cn1ccnc1[N+](=O)[O-])NCCO` is 88.4%.
For `NC(=O)c1ncn([C@@H]2O[C@H](CO)[C@@H](O)[C@H]2O)c1N`, the synaptosome phagocytosis was 84.3%.
Same read-out and setting: the figure for `COc1cc(/C=C/C(=O)CC(=O)/C=C/c2ccc(O)c(OC)c2)ccc1O` is 109%; for `COc1cc(O)c(C(C)=O)c(O)c1` it is 101%; for `CC(=O)O[C@@H]1CC[C@@]2(C)C(C[C@@H](OC(C)=O)[C@@]3(C)C4=CC(=O)O[C@@H](c5ccoc5)[C@]4(C)CCC23)C1(C)C` (stereo partly drawn) [3alpha-ACETOXYDIHYDRODEOXYGEDUNIN] it is 129%.
Consider `CN(C)CCCOc1nn(Cc2ccccc2)c2ccccc12`, for which the synaptosome phagocytosis was 79%.
The same measure, in the same setting: the figure for `O=c1cc(-c2ccccc2)oc2cccc(O)c12` is 60.7%; for `C1CNCCN1` it is 101%.
Regarding `OC[C@@H](O)[C@@H](O[C@@H]1O[C@H](CO)[C@@H](O)[C@H](O)[C@H]1O)[C@H](O)[C@@H](O)CO`, the synaptosome phagocytosis is 117%.
The same measure, in the same setting: the figure for `CC(CCc1ccc(O)cc1)NCCc1ccc(O)c(O)c1` (stereo not given) is 98.4%.
In the case of `Oc1cccc(O)c1`, the synaptosome phagocytosis was 97.3%.
With `COc1cc(O)c(C)c(O)c1`, the synaptosome phagocytosis is 89.3%.
Same read-out and setting: the figure for `CCOC(=O)Nc1nc2ccccc2[nH]1` is 117%; for `COc1cc2c(cc1OC)-c1c(oc3cc(O)cc(O)c3c1=O)CO2` it is 158%; for `Nc1cc(C(Cl)=C(Cl)Cl)c(S(N)(=O)=O)cc1S(N)(=O)=O` it is 116%.
The same measure, in the same setting: the figure for `N[C@@H](C(=O)O)[C@@H](O)[C@H](O)[C@H](O)CO` is 99.5%; for `C[C@@H]1CC[C@@]2(OC1)O[C@H]1C[C@H]3[C@@H]4CC=C5C[C@@H](O)CC[C@]5(C)[C@H]4CC[C@]3(C)[C@H]1[C@@H]2C` it is 104%.
For the molecule `Cc1cc(-c2ccccc2)nnc1NCCN1CCOCC1`, the synaptosome phagocytosis was 112%.
As to `COc1cc(-c2cc(=O)c3c(O)c(OC)c(OC)c(OC)c3o2)cc(OC)c1OC`, the synaptosome phagocytosis was 106%.
